From patent publication US9707220B2 (The United States of America, as represented by the …, priority 2005, dated 2017)
No dose or concentration is given here for some results.

Test system: healthy volunteers (HV)
Test: Example 1: dose-finding study, MADRS in healthy volunteers
Assay type: in vivo, human

CN1C2C[C@H](OC(=O)C(CO)c3ccccc3)CC1[C@H]1OC21 (stereo partly drawn) [scopolamine]
0±: MADRS score, Session 2, HV (mean) | MADRS score, Session 3, HV (mean) | MADRS score, Session 4, HV (mean)
